Values quoted from earlier work as cited in publication PMC7795492, “Protein Sensing Device with Multi-Recognition Ability Composed of Self-Organized Glycopeptide Bundle” (International Journal of Molecular Sciences, 2020).
Read-outs that look alike come from different tables or passages of the source.

Conditions: cited from earlier work; for Channel formation / conformation: lipid bilayer membrane

Substance: -(Leu-Ser-Leu-Leu-Ser-Ser-Leu)3- [channel forming element reported by DeGrado et al]
- Channel diameter (channel consisting of a hexamer bundle): ca. 4 nm
- Channel formation / conformation: formed the ion channel
- Channel formation / conformation (listed as (Leu-Ser-Leu-Leu-Ser-Ser-Leu)3): had an amphiphilic α-helix conformation and formed a channel in the lipid bilayer membrane
